{"source": "PubChem BioAssay AID651647", "about": "(Sanford-Burnham Center for Chemical Genomics, 2012)", "note": "Some of the results follow."}
{"experiment": "blockers of MT1-MMP proenzyme processing, primary screen, HT1080 RFP-PRO-GFP cells, GFP/RFP fluorescence (AID 651647)", "details": "GFP/RFP ratio fluorescence, overnight, RFP expression control read, at 20 µM", "in_short": "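Assay system: HT1080 RFP-PRO-GFP cells. Benchmarks: DMSO vehicle wells and RFP-L50D-GFP reporter cell wells. Times: overnight cell settling, then overnight compound exposure, 37 °C, 5% CO2. Compound: 20 µM single dose, 1% DMSO. Read-out basis: GFP/RFP fluorescence ratio.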", "units": {"RFP signal change": "%"}}
{"smiles": "CC1CCN(C(=O)Oc2c(Cl)cc(Cl)c3cccnc23)CC1", "RFP signal change": -2.44}
{"smiles": "CC(C)=N/N=C(\\N)N[N+](=O)[O-]", "RFP signal change": 4.4}
{"smiles": "CC(C)c1nc(Nc2ccccc2)n(P(=O)(N(C)C)N(C)C)n1", "RFP signal change": -2.81}
{"smiles": "CN(C)C(=O)OCCc1n(C)cc[n+]1C", "RFP signal change": 3.63}
{"smiles": "CCN(/C(=N/P(=O)(N1CCOCC1)N1CCOCC1)N1CCOCC1)c1ccc(OC)cc1", "RFP signal change": 3.23}
{"smiles": "CP(=O)(Nc1ccc(Cl)cc1)Oc1ccc(F)cc1", "note": "(centres undefined)", "RFP signal change": -0.801}
{"smiles": "CC(C)(C)c1ccc(OP(C)(=O)O)cc1", "RFP signal change": 1.48}
{"smiles": "Nc1ccc([As](=O)(O)c2ccc(N)cc2)cc1", "RFP signal change": 0.688}
{"smiles": "COc1ccccc1OP(C)(=O)Nc1ccccc1Br", "note": "(centres undefined)", "RFP signal change": 4.07}
{"smiles": "C[N+]1=C2C=CC=CC=C2SC12C([N+](=O)[O-])=CC([N+](=O)[O-])=C[C-]2[N+](=O)[O-]", "note": "(centres undefined)", "RFP signal change": -14.6}
{"smiles": "CP(=O)(Oc1ccccc1)N1CCOC1=O", "note": "(centres undefined)", "RFP signal change": 2.48}
{"smiles": "Cc1ccc(NP(=O)(Oc2ccccc2)Oc2ccccc2)nc1", "RFP signal change": -0.473}
{"smiles": "CCc1nc2c(n1)c1c(non1O)c1c2no[n+]1[O-]", "RFP signal change": 7.2}
{"smiles": "O=[N+]([O-])c1cc([N+](=O)[O-])c(CCNc2ccccc2)c([N+](=O)[O-])c1", "RFP signal change": -5.51}
{"smiles": "CCc1ccc(OP(C)(=O)Nc2cccnc2)cc1", "note": "(centres undefined)", "RFP signal change": -5.8}
{"smiles": "COc1ccccc1OP(C)(=O)Nc1c(C)n(C)n(-c2ccccc2)c1=O", "note": "(centres undefined)", "RFP signal change": -0.341}
{"smiles": "O=[N+]([O-])c1cccc2n[nH]nc12", "RFP signal change": 2.59}
{"smiles": "CC(=O)N1C2C3N(C(C)=O)C1C1N(C(C)=O)C(C(N1C(C)=O)N3C(C)=O)N2C(C)=O", "RFP signal change": 6.21}
{"smiles": "O=C(OCCCN1CCCC1)C(O)(c1ccccc1)C1CCCCC1", "note": "(centres undefined)", "RFP signal change": 3.44}
{"smiles": "CCN(CC)CC(O)COC(=O)C(O)(c1ccccc1)C1CCCCC1", "note": "(centres undefined)", "RFP signal change": -6.34}
{"smiles": "COc1ccc(OP(C)(=O)Nc2ccc(Br)cc2)cc1", "note": "(centres undefined)", "RFP signal change": 1.27}
{"smiles": "COc1ccc(C2=NCC(CBr)S2)cc1", "note": "(centres undefined)", "RFP signal change": -4.5}
{"smiles": "CCC(C)N(CC(C)C)C(=S)SC(NC(C)=O)C(Cl)(Cl)Cl", "note": "(centres undefined)", "RFP signal change": 2.3}
{"smiles": "CP(=O)(Nc1ccccn1)Oc1ccc(Cl)cc1", "note": "(centres undefined)", "RFP signal change": -0.896}
{"smiles": "CCOP(C)(=S)SCC(=O)NC(C)C(=O)O", "note": "(centres undefined)", "RFP signal change": 2.68}
{"smiles": "O=C(OC1CN2CCC1CC2)c1cccc([N+](=O)[O-])c1", "note": "(centres undefined)", "RFP signal change": -0.328}
{"smiles": "CSc1ccc(Nc2c([N+](=O)[O-])cc([N+](=O)[O-])cc2[N+](=O)[O-])cc1", "RFP signal change": -9.25}
{"smiles": "CCOC(=O)c1ccc(NP(C)(=O)Oc2ccc(OC)cc2)cc1", "note": "(centres undefined)", "RFP signal change": -0.736}
{"smiles": "CCOC(=O)c1ccc(NC(=O)C(C)(CCl)SC)cc1", "note": "(centres undefined)", "RFP signal change": 0.861}
{"smiles": "O=[N+]([O-])c1cc([N+](=O)[O-])c(O)c([N+](=O)[O-])c1.c1ccc(Oc2ccncc2)cc1", "RFP signal change": 3.44}
{"smiles": "CCc1ccc(OP(C)(=O)N2CCN(c3ccc([N+](=O)[O-])cc3)CC2)cc1", "note": "(centres undefined)", "RFP signal change": -22.5}
{"smiles": "O=C(COc1ccccc1)OC1CN2CCC1CC2", "note": "(centres undefined)", "RFP signal change": -0.383}
{"smiles": "CP(=O)(NC(=O)Nc1ccccc1)Oc1ccccc1", "note": "(centres undefined)", "RFP signal change": -0.505}
{"smiles": "O=C(Nc1ccncc1[N+](=O)[O-])c1ccc([N+](=O)[O-])cc1[N+](=O)[O-]", "RFP signal change": -12}
{"smiles": "Cc1cc(C)cc(OP(C)(=O)Nc2ccc(SC(F)(F)F)cc2)c1", "note": "(centres undefined)", "RFP signal change": -3.79}
{"smiles": "Cc1ccc(Nc2c([N+](=O)[O-])cc([N+](=O)[O-])cc2[N+](=O)[O-])cc1", "RFP signal change": -4.75}
{"smiles": "Cc1cccc(C)c1OP(C)(=O)Nc1ccc(SC(F)(F)F)cc1", "note": "(centres undefined)", "RFP signal change": 2.49}
{"smiles": "CP(=O)(Nc1ccc(SC(F)(F)F)cc1)Oc1ccc(Cl)cc1", "note": "(centres undefined)", "RFP signal change": -3.34}
{"smiles": "COP1(=S)c2c(C)nn(CCC#N)c2N=C(c2ccc(F)cc2)N1C", "note": "(centres undefined)", "RFP signal change": -1.61}
{"smiles": "CP(=O)(Oc1ccccc1)OC(c1ccccc1)C(F)(F)F", "note": "(centres undefined)", "RFP signal change": 1.84}
{"smiles": "COC(=O)C1(C)COP(=O)(N2CCCC2)OC1", "note": "(centres undefined)", "RFP signal change": 1.47}
{"smiles": "O=P(Nc1ccccn1)(c1cccc2ccccc12)c1cccc2ccccc12", "RFP signal change": -2.07}
{"smiles": "Cc1cc(SC(NC=O)C(Cl)(Cl)Cl)ncn1", "note": "(centres undefined)", "RFP signal change": 4.75}
{"smiles": "COc1ccccc1OP(C)(=O)Nc1ccccc1", "note": "(centres undefined)", "RFP signal change": 3.14}
{"smiles": "CP(=O)(Nc1ccccc1Br)Oc1ccccc1", "note": "(centres undefined)", "RFP signal change": 4.61}
{"smiles": "O=[N+]([O-])c1ccc(Nc2ccc(Oc3ccc([N+](=O)[O-])cc3[N+](=O)[O-])cc2)c([N+](=O)[O-])c1", "RFP signal change": -3.46}
{"smiles": "CP(=S)(Nn1cnnc1)Oc1ccccc1", "note": "(centres undefined)", "RFP signal change": 2.2}
{"smiles": "CCOC(=O)Nc1cccc([As](=O)(O)O)c1", "RFP signal change": 10.1}
{"smiles": "COP(=O)(OC)N1CC1c1ccccc1", "note": "(centres undefined)", "RFP signal change": 0.835}
{"smiles": "CCCCOc1ccc(C(=O)NCC2(N3CCCCC3)CCCCC2)cc1OC", "RFP signal change": 2.48}
{"smiles": "Cc1cc(SC(NC(=O)c2ccccc2)C(Cl)(Cl)Cl)nc(C(C)C)n1", "note": "(centres undefined)", "RFP signal change": -1.82}
{"smiles": "CCOC(=O)Nc1ccc([As](=O)(O)O)c(O)c1", "RFP signal change": 8.48}
{"smiles": "O=C(O)C(=O)c1ccc(N(CCCl)CCCl)cc1.c1ccc(Nc2ccccc2)cc1", "RFP signal change": -2.41}
{"smiles": "CC1CCNP(=O)(N(CCCl)CCCl)O1", "note": "(centres undefined)", "RFP signal change": 1.86}
{"smiles": "CCN(CC)C(=S)SC(NC=O)C(Cl)(Cl)Cl", "note": "(centres undefined)", "RFP signal change": 2.99}
{"smiles": "O=C(OC1CN2CCC1CC2)c1cccc2[nH]cnc12", "note": "(centres undefined)", "RFP signal change": 1.84}
{"smiles": "COc1ccccc1OP(C)(=O)Nc1cc(Cl)ccc1C", "note": "(centres undefined)", "RFP signal change": 6.48}
{"smiles": "CC(C)NC(=O)NP(=O)(Oc1ccccc1)Oc1ccccc1", "RFP signal change": 2.27}
{"smiles": "O=[N+]([O-])c1cc([N+](=O)[O-])c(-c2ccn[nH]2)s1", "RFP signal change": -7.27}
{"smiles": "COc1ccc(OP(C)(=O)Nc2cccc(F)c2)cc1", "note": "(centres undefined)", "RFP signal change": -0.463}
{"smiles": "Cc1cc(C)cc(OP(C)(N)=O)c1", "note": "(centres undefined)", "RFP signal change": 1}
{"smiles": "CCOC(=O)c1ccc(NP(C)(=O)Oc2ccccc2)cc1", "note": "(centres undefined)", "RFP signal change": -1.89}
{"smiles": "ClCCSc1nnc(-c2cccnc2)o1", "RFP signal change": -0.76}
{"smiles": "COc1ccccc1OP(C)(=O)Nc1ccc(C)cc1", "note": "(centres undefined)", "RFP signal change": 1.17}
{"smiles": "Cc1ccc(NP(C)(=O)Oc2ccccc2)c(C)c1", "note": "(centres undefined)", "RFP signal change": 3.95}
{"smiles": "COC(=O)C1(C)COP(=O)(N2CCCCCC2)OC1", "note": "(centres undefined)", "RFP signal change": 0.774}
{"smiles": "CC(C)(C)c1ccc(OP(C)(=O)Nc2ccc(SC(F)(F)F)cc2)cc1", "note": "(centres undefined)", "RFP signal change": -8.54}
{"smiles": "[N-]=[N+]=NC1CCCCC1NC(=O)c1cc([N+](=O)[O-])cc([N+](=O)[O-])c1", "note": "(centres undefined)", "RFP signal change": 1.57}
{"smiles": "Cc1ccc(OP(=O)(Nc2ccc([N+](=O)[O-])cn2)Oc2ccc(C)cc2)cc1", "RFP signal change": -4.67}
{"smiles": "Cc1cccc(C)c1OP(C)(N)=O", "note": "(centres undefined)", "RFP signal change": 10}
{"smiles": "Cc1ccc2nc3c(c(C)c2c1)CC(C(Cl)Cl)S3", "note": "(centres undefined)", "RFP signal change": -1.53}
{"smiles": "O=[N+]([O-])c1ccc2c(c1)C=Nc1ccccc1O2", "RFP signal change": -8.9}
{"smiles": "O=[N+]([O-])c1cc([N+](=O)[O-])c(Nc2cccnc2)c([N+](=O)[O-])c1", "RFP signal change": -2.17}
{"smiles": "C[As](=O)(O)c1cccc(C(=O)O)c1", "RFP signal change": 1.68}
